# In all, about 33,000 sequences were measured (“E-score (-0.5 to 0.5)”: median about -8e-05, highest 2% from about 0.23 on). The list shows a part of the results.
# Biological target: T1, Nrg2 (UniProt P38082)
# T1 sequence: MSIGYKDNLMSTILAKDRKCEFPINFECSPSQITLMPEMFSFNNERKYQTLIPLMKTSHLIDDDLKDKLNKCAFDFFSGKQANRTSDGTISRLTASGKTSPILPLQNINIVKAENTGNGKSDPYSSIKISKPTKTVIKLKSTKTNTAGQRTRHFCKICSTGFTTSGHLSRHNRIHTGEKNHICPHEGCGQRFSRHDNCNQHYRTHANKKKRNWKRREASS
# Test: PBM E-score (8-mer binding enrichment) (E-score (-0.5 to 0.5)); higher = stronger / more preferred TF binding
# Conditions: protein concentration: 100 nM; construct: GST-full length
# Outline: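 PURExpress in vitro transcription/translation supplied GST-tagged yeast transcription factors, either full-length or DNA-binding domain. Applied at about 100-200 nM to universal all-10-mer Agilent arrays double-stranded by primer extension, the bound protein was detected with fluorescent anti-GST. E-scores, modified Wilcoxon-Mann-Whitney statistics, were given by the Universal PBM Analysis Suite to ungapped eight-base words pooled with their reverse complements after masliner normalisation.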
row,Sequence,PBM E-score
1,AAAGAGTC,-0.0807
2,GCACCGCA,-0.0696
3,ACAGATTC,0.0398
4,GTACATAA,-0.124
5,AGGTGAAG,0.0768
6,TGTCGACA,-0.135
7,AAGGAATT,-0.0857
8,ATCGGCAA,-0.0754
9,ACTGCAGC,-0.021
10,ACCGCCAC,-0.117
11,GCCGCCCC,-0.0098
12,CTGCTGCC,-0.149
13,ATCTCTTA,0.0974
14,GGTAGACA,-0.0266
15,ATGTGCAC,0.0387
16,AGAGTCCC,-0.122
17,AAGCAGCT,0.0174
18,ACGAACGG,0.0256
19,CAAGCGAG,0.0589
20,CATCCCCA,0.0686
21,GCATAGAA,0.0602
22,AATAGAGA,-0.0214
23,CATTAATA,0.155
24,ACGTCTCG,-0.0367
25,GTGGAGTA,0.0386

row,Sequence,PBM E-score
1,ACCCAGTA,-0.0366
2,AACCGTGG,-0.16
3,CCGCGCGC,0.236
4,AAGAGGCT,-0.243
5,ACATCTTC,-0.00782
6,GGTCGGCA,-0.049
7,TCCCTAGA,0.0823
8,GATCGCGC,0.0895
9,CGTTCATA,-0.0309
10,CAACCTGA,-0.0742
11,CATGCCGC,0.155
12,CACGATAA,0.106
13,GAGTTTGA,0.0996
14,ACCGTTAA,-0.00716
15,CATATACG,0.00262
16,ACCTGGCC,0.177
17,ACGGAAAC,-0.0771
18,CCTGGGCG,-0.0539
19,GGAGCTCC,-0.0329
20,AACAAGGA,0.175
21,CGAGTGCC,-0.134
22,ATTTATCG,0.0781
23,CCTACCAG,-0.121
24,GCATACTA,0.0455
25,CCTAGCTA,-0.0696

# 2 entries from above, bar-delimited:
row | Sequence | PBM E-score
8 | GATCGCGC | 0.0895
9 | CGTTCATA | -0.0309

# Remaining list, next part

row,Sequence,PBM E-score
1,CACATTTA,-0.0384
2,CAGAAAGA,0.0955
3,CCGGGTCA,-0.156
4,TGAAATCA,0.183
5,ACTTGAAA,-0.108
6,CCCATTCA,0.199
7,ACCGATGA,-0.157
8,ATACAACC,-0.00323
9,CGTTTGGC,-0.123
10,CACGTAGA,0.115
11,ATGGCCGC,-0.107
12,AGGTTGTG,-0.0889
13,CGACTAAC,0.0392
14,GAACCCCA,0.26
15,CGGTACAG,0.00173
16,CCGATCTC,-0.0618
17,AGTGAATC,0.0226
18,AAGGACCT,0.0061
19,CGGTTAAG,-0.139
20,GAATCCCC,-0.0968
21,CACATCCG,0.113
22,GCAAGAGC,0.103
23,CGATGACG,-0.277
24,ACTCAGTC,-0.0974
25,GCCAGTCA,-0.116

row,Sequence,PBM E-score
1,GCCCTCTA,-0.222
2,AGCATAAT,0.132
3,ACGCTCAG,-0.148
4,GCAGGGCA,-0.0314
5,CAGTTACA,0.0391
6,AAAACATG,0.034
7,AGCTGATC,0.201
8,GCGATTCA,0.0781
9,CTCTCGAC,-0.215
10,AGGGACCG,0.231
11,AGATATCG,0.0444
12,AGTAGTAA,0.0492
13,CGACGGGA,0.015
14,CTCTTGAA,-0.0353
15,CACTGTGA,-0.0622
16,AATTAGAC,0.119
17,ATCCGGCA,-0.0964
18,ATTGGTCA,0.0477
19,AGGAGCGA,-0.218
20,ATGACTAG,-0.149
21,ATAGAACG,0.224
22,TACGCAAA,-0.171
23,ATCATCGA,0.0858
24,AGTCGAGA,0.00656
25,TAGTGGCA,-0.00178

# Given as tab-separated lines: part of the list above.
row	Sequence	PBM E-score
1	AAAGAGTC	-0.0807
2	GCACCGCA	-0.0696

# The list continues.

row,Sequence,PBM E-score
1,AAAGGCAG,-0.0209
2,TCAACGGA,-0.0313
3,CAACGATC,-0.156
4,AGTTTCTA,-0.131
5,GCCGAGAA,0.0411
6,CTTTCAGC,-0.104
7,AACCCCTT,0.134
8,CGGCTATA,-0.0676
9,AGTGCGCC,-0.0896
10,TCGATTAA,0.207
11,CTTACCTA,0.042
12,GACTCGAC,-0.21
13,CAAGCACC,-0.0996
14,CTCCAAAA,-0.136
15,CATGGAGG,-0.188
16,GCCTGGTA,0.0618
17,ACCACACG,-0.034
18,CTAGCGCC,-0.231
19,GGTCTAAC,-0.0523
20,GCTGTTAC,-0.204
21,CACTACCA,0.105
22,AAGTGTGC,0.167
23,AACCAACT,0.136
24,GTAGAGAC,-0.201
25,ACATAACC,0.109

row,Sequence,PBM E-score
1,ATTTGGTC,0.0865
2,ACGCATCC,-0.233
3,CAGCGTGG,-0.209
4,CCTTTTGA,0.058
5,GCGTACAA,-0.147
6,CACGGCTC,0.0174
7,ACTATGCG,0.11
8,ATGACCTC,-0.0645
9,AATGGTCT,-0.037
10,AGCATGAA,0.155
11,CTCGCATC,0.0987
12,GGGCAAGA,0.171
13,ACTCAGCG,0.0845
14,GATTAGAA,0.0967
15,CTATGTTA,0.115
16,CTTCAGAC,-0.0785
17,CATGTACA,-0.159
18,CCGTTTAC,0.00913
19,AACTGCGC,-0.08
20,AGGGGAAA,-0.046
21,AATTGGCG,0.0629
22,CCGTGACG,0.0344
23,CAACGTCC,-0.218
24,AAGATTTG,-0.00761
25,GATGATGA,0.0445

# Not a retest: an excerpt of the list.
row,Sequence,PBM E-score
19,AACTGCGC,-0.08
20,AGGGGAAA,-0.046
21,AATTGGCG,0.0629

# Remaining list, next part:

row,Sequence,PBM E-score
1,GTAGCCAC,-0.203
2,ATTACTCC,-0.0106
3,AAGATTGT,-0.0108
4,CAACTAGA,-0.0228
5,AAGATATC,0.149
6,GAGTAGGA,0.00162
7,CTATTTGC,-0.0144
8,CCTCGTTA,0.0397
9,CGCACTTC,-0.0401
10,AAATTACA,0.00595
11,CTTATATA,0.208
12,GTCAAATA,0.0158
13,GCGGCTTA,-0.132
14,GTGGAAAC,0.00551
15,ACAGGTCT,-0.288
16,CATAAACA,-0.00191
17,CTAGGTTA,0.119
18,GAGTACAC,-0.00538
19,CGTTTAGC,-0.00779
20,ATTAGCGG,0.00339
21,AAATTGAG,0.124
22,ATAACCGC,0.0917

# Source: the supplement of paper PMC3334620
